Test results published in paper PMC7253433.
These are yes or no findings as the source states them, for the method shown. In cells and extracts the contact can be indirect. For part of these data: A result given as binding can be weak or reduced; the word gives no strength.

Experiments:
[1] = biological target: T1, DHX36 (human (endogenous in U87 and U251)) (UniProt Q9H2U1); test: co-IP; total extracts (TE) of U87 or U251 cells, endogenous proteins, in the presence of RNase and DNase; immunoprecipitation with hnRNP H/F or DHX36 antibody, western blot
T1 sequence: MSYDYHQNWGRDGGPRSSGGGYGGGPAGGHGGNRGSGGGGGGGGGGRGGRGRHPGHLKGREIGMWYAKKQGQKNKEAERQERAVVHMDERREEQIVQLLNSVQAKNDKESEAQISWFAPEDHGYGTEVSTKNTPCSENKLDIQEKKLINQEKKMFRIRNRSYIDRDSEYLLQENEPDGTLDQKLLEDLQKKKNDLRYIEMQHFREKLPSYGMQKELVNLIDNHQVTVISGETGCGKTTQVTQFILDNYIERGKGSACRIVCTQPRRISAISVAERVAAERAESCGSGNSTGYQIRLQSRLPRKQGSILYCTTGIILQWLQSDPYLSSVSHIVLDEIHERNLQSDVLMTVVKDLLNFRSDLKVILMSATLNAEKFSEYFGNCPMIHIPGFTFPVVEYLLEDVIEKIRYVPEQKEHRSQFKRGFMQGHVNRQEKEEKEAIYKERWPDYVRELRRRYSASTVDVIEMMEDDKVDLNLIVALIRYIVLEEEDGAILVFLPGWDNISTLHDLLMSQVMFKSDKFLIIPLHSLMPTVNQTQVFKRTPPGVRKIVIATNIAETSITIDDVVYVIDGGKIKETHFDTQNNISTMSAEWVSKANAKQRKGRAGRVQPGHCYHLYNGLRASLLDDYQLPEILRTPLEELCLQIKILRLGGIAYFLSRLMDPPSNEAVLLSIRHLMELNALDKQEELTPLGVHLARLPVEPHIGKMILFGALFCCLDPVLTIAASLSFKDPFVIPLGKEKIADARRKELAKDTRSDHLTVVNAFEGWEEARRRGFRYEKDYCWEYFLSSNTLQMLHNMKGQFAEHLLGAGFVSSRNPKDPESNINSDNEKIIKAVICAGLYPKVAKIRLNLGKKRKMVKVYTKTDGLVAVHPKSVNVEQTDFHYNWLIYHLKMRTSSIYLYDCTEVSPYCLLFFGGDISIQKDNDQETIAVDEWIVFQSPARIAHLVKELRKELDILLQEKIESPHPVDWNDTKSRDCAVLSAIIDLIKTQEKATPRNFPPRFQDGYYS

[2] = biological target: T1, DHX36 (human (endogenous in U87 and U251)); test: co-IP; cytoplasmic extracts (CE; cytosolic + microsomal fractions) of U87 or U251 cells, endogenous proteins, digested with Benzonase and DNase I; hnRNP H/F or DHX36 antibody on beads, 1 mg extract overnight at 4 °C, western blot
[3] = biological target: T2, hnRNP F (human (endogenous in U87 and U251)) (UniProt P52597); test: co-IP; total extracts (TE) of U87 or U251 cells, endogenous proteins, in the presence of RNase and DNase; immunoprecipitation with hnRNP H/F or DHX36 antibody, western blot
T2 sequence: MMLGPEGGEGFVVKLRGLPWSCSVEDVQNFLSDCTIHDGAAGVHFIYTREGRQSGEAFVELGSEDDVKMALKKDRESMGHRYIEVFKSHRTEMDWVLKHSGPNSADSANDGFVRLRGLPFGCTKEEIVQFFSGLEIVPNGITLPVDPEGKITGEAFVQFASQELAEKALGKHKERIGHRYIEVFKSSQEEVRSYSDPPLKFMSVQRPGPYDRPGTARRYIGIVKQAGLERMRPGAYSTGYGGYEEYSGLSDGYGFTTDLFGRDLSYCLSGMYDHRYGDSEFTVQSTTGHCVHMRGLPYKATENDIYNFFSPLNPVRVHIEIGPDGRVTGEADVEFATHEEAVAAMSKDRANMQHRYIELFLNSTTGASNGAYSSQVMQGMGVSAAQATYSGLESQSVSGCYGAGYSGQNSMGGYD

[4] = biological target: T2, hnRNP F (human (endogenous in U87 and U251)); test: co-IP; cytoplasmic extracts (CE; cytosolic + microsomal fractions) of U87 or U251 cells, endogenous proteins, digested with Benzonase and DNase I; hnRNP H/F or DHX36 antibody on beads, 1 mg extract overnight at 4 °C, western blot

| binding [1] | binding [2] | binding [3] | binding [4] | Substance |
| --- | --- | --- | --- | --- |
| binds | binds | – | – | hnRNP H (human (endogenous in U87 and U251)) |
| no binding | no binding | no binding | no binding | translation initiation factor eIF4A (human (endogenous in U87 and U251)) (enzyme) |
